These are yes or no findings as the source states them, for the method shown. Some entries that bind do so weakly or less than the wild type.

Sequences of proteins named here, by UniProt entry; tags and fusion partners are left off. Residues count along the entry.
UniProt P12107, residues 36-1806: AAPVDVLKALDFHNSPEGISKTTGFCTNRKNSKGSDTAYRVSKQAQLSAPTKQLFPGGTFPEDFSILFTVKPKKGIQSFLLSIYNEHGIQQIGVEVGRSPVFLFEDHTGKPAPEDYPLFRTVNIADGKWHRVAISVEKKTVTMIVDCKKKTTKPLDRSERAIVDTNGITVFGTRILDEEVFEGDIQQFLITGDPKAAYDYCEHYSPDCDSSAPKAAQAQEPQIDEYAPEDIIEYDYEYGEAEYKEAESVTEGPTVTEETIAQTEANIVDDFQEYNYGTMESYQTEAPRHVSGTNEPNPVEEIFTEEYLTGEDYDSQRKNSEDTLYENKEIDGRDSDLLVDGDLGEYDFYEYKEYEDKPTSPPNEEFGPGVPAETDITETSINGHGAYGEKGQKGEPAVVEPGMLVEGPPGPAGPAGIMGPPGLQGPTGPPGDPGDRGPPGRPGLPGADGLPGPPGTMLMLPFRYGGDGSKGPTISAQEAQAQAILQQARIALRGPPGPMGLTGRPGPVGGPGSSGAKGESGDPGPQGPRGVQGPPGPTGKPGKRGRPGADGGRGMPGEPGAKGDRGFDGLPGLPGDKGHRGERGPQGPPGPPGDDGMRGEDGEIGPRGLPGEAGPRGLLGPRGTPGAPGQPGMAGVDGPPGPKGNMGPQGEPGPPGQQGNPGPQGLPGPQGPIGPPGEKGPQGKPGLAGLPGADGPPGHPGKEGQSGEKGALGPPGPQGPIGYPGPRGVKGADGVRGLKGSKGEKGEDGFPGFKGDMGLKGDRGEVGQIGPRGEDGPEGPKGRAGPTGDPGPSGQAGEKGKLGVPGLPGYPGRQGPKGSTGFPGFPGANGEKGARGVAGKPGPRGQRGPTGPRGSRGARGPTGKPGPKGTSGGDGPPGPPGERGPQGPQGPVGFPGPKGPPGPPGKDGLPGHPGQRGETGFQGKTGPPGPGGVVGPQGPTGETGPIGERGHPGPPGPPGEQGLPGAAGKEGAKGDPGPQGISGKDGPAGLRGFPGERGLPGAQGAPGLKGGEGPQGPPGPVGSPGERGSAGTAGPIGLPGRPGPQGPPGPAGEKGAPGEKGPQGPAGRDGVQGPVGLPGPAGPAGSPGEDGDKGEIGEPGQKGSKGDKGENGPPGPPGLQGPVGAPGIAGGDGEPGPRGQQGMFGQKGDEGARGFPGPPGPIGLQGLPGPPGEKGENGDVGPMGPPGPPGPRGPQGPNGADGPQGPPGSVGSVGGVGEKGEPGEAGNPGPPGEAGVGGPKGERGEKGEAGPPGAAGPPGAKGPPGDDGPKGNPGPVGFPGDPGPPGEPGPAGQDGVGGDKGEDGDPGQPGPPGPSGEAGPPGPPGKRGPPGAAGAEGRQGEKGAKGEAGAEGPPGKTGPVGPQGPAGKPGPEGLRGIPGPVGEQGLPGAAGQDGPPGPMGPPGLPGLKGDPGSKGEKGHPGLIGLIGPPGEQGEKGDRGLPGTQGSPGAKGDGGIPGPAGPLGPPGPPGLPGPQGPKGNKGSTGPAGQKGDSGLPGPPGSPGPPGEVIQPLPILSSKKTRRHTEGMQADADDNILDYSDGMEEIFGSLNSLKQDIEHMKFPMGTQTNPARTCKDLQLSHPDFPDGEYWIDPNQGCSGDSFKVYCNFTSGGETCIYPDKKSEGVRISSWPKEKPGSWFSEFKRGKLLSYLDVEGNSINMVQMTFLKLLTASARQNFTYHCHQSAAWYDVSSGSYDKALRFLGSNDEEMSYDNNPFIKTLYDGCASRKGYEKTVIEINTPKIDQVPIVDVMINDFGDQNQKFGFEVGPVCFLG

The assay concerns the target proCOL11A1 protein expressed in A204 rhabdomyosarcoma cells (human) (UniProt P12107). As to the kind of experiment: immunocytochemistry on A204 cells.

B1: 1E8.33 monoclonal antibody (antibody, V domains shown)
VH: EVQLQESGPELVKTGSSVKISCKASGYSFTGYYMHWVKQSQGKSLEWIGYINCYNGATSYNRNFKGKATFTVDTSSSTAYMQFNSLTSGDSAVYYCAIWDYEFHVMDYWGQRTSLTVSS
VL: ENVLTQSPAIMSASLGEKVTMSCRASSSVNYMYWYQQKSDASPKLWIYYTSNLAPGVPARFSGSGSGNSYSLTISSMEGEDADTYYCQQFTSSPWTFGGGTKLEIK
As to B1, the binding result is reported as “binds”.

The values are drawn from patent publication US20150362496A1.
